The values that follow come from paper PMC13276377.

The chains behind the UniProt entries cited, without tags or fusion partners. Residues count along the entry.
UniProt Q99836, residues 153-296: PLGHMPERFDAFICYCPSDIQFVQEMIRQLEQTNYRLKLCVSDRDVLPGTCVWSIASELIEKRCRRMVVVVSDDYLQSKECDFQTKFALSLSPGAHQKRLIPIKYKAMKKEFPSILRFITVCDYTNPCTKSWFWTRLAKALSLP
UniProt O60602, residues 685-858: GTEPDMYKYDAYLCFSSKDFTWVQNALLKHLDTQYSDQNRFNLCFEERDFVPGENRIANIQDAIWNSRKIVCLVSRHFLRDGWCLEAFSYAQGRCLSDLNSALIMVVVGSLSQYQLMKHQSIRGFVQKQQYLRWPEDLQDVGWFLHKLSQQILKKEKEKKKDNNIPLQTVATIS

No constants are given. Whether binding was seen depends on the method and setting. Some binding calls cover weakened binding; strength is not graded here.

This experiment addresses TIR domain of MyD88 (TIR_(MyD88); residues 153–296) (human) (UniProt Q99836). Kind of experiment: high-speed AFM; preformed TIR_(MyD88) rings on mica; 7 μL of 50 μM GST-TIR_(TLR2), TIR_(TLR2), GST-TIR_(TLR5) or GST added to 63 μL of buffer (final 5 μM) while scanning; 20 mM HEPES pH 7.0, 50 mM NaCl, 10 mM DTT; room temperature; topping events on rings counted; both purified.

With “GST-TIR_(TLR5) (from UniProt O60602 685-858) (domain or fragment)”, the binding entry is listed as “binds”.
